Test [1] has as its target T1, HA-tagged Numbl (full length) (human) (UniProt Q9Y6R0).
T1 sequence: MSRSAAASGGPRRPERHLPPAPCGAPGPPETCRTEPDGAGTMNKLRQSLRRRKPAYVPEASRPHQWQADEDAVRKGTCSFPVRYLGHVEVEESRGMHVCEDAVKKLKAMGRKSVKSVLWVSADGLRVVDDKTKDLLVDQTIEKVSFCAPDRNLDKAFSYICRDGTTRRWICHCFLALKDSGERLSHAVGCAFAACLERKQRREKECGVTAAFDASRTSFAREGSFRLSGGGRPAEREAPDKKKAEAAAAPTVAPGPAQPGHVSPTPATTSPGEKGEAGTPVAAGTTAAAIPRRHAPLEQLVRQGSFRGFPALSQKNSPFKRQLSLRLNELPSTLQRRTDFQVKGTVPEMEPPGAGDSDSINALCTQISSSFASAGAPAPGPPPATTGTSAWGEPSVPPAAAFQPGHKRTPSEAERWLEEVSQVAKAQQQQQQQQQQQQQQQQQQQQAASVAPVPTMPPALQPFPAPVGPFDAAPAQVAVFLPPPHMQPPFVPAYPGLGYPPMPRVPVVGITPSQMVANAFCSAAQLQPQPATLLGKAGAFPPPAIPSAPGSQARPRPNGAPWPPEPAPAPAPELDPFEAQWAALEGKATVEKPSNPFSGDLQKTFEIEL
Put plainly: co-IP; HA-tagged Numbl (or derivatives) and GFP-tagged Integrin β1 (or truncation) co-expressed in HEK293T cells; extracts immunoprecipitated with anti-HA or anti-GFP and immunoblotted with anti-GFP or anti-HA. (In general: In western blotting, separated proteins are transferred to a membrane and probed.)

For test [2], the target named is Integrin β1 (endogenous, myeloma cells) (human (endogenous in myeloma cell lines RPMI 8226 / H929)). Put plainly: co-IP; endogenous proteins in myeloma cell lysate (RIPA buffer); immunoprecipitation with anti-Integrin β1 antibody or mouse normal IgG on protein A or G Sepharose, 12 h at 4 °C; Western blot with anti-Numbl.
For test [3], the target named is GFP-tagged Integrin β1 (full length) (human). Put plainly: co-IP; HA-tagged Numbl (or derivatives) and GFP-tagged Integrin β1 (or truncation) co-expressed in HEK293T cells; extracts immunoprecipitated with anti-HA or anti-GFP and immunoblotted with anti-GFP or anti-HA.

These are yes or no findings as the source states them, for the method shown. Binding seen in cells or lysates may run through a third protein. Binding calls can cover weak binding; strength is not graded here. For some of these results: Sequences can lack the tags named with a protein.

For “GFP-tagged Integrin β1 (full length) (human) (receptor)”, the binding entry in test [1] was “binds”.

Consider “Integrin β1 fragment (amino acid residues 455–802) (human) (domain or fragment)”, for which, in test [1], the binding entry is listed as “binds”.

B1: Numbl (endogenous, myeloma cells) (protein, UniProt Q9Y6R0 1-609)
chain: T1 sequence
For B1, the binding result in test [2] was “binds”.

B2: HA-tagged Numbl (full length) (protein, UniProt Q9Y6R0 1-609)
chain: T1 sequence
For B2, the binding result in test [3] is given as “binds”.

Values taken from PMC6937660.
